Test results as given in the supplement of paper PMC12067093, “Discovery and optimisation of a covalent ligand for TRIM25 and its application to targeted protein ubiquitination” (Chemical Science, 2025).
The list shows a part of the results.

The chains behind the UniProt entries cited, without tags or fusion partners. Where a name states a change or a piece, a line headed by the entry shows the natural chain unless it says otherwise.
UniProt P11274: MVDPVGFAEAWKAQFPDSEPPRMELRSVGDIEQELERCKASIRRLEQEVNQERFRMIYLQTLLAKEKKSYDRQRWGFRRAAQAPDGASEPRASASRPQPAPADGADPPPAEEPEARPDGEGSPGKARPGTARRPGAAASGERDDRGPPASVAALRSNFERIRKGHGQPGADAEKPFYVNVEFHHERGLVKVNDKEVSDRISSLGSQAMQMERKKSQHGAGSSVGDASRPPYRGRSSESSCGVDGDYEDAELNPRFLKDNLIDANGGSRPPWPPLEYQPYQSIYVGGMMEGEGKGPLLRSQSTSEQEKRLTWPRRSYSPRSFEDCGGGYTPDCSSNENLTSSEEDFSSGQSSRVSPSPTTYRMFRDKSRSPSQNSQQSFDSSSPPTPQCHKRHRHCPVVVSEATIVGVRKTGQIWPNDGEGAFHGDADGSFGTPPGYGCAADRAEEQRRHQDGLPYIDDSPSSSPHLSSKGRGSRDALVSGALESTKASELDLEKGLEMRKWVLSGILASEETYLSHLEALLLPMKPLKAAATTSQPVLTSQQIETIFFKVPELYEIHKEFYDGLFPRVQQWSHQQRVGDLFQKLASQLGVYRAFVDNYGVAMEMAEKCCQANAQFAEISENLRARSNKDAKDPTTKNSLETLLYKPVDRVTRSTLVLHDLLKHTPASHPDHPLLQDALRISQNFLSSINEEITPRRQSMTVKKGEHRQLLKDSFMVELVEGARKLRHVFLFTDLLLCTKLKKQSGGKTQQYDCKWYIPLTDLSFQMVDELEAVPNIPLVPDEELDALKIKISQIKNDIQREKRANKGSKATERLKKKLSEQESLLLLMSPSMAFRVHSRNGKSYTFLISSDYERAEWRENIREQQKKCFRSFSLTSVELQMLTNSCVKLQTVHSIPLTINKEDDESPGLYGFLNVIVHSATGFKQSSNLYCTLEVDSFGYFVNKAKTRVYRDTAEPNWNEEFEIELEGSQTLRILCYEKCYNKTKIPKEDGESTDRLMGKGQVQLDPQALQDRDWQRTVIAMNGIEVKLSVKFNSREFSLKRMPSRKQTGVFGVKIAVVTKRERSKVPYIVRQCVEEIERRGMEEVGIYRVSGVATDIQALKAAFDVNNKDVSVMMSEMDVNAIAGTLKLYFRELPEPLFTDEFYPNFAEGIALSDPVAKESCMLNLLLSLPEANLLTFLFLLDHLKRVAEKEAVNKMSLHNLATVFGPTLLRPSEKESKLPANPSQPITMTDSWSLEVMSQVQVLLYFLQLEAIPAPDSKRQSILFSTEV
UniProt P15291: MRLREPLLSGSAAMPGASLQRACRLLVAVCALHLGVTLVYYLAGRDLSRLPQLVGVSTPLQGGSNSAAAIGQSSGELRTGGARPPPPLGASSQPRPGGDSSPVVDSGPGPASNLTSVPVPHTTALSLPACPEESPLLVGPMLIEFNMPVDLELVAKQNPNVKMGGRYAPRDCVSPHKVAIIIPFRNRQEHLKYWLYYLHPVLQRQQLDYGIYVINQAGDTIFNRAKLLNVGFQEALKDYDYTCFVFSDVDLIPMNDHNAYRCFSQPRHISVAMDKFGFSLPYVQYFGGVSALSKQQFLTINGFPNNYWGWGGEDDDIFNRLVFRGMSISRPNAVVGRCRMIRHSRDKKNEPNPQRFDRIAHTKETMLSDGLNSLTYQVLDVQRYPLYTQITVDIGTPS
UniProt Q9NSY1, whole entry, looked up: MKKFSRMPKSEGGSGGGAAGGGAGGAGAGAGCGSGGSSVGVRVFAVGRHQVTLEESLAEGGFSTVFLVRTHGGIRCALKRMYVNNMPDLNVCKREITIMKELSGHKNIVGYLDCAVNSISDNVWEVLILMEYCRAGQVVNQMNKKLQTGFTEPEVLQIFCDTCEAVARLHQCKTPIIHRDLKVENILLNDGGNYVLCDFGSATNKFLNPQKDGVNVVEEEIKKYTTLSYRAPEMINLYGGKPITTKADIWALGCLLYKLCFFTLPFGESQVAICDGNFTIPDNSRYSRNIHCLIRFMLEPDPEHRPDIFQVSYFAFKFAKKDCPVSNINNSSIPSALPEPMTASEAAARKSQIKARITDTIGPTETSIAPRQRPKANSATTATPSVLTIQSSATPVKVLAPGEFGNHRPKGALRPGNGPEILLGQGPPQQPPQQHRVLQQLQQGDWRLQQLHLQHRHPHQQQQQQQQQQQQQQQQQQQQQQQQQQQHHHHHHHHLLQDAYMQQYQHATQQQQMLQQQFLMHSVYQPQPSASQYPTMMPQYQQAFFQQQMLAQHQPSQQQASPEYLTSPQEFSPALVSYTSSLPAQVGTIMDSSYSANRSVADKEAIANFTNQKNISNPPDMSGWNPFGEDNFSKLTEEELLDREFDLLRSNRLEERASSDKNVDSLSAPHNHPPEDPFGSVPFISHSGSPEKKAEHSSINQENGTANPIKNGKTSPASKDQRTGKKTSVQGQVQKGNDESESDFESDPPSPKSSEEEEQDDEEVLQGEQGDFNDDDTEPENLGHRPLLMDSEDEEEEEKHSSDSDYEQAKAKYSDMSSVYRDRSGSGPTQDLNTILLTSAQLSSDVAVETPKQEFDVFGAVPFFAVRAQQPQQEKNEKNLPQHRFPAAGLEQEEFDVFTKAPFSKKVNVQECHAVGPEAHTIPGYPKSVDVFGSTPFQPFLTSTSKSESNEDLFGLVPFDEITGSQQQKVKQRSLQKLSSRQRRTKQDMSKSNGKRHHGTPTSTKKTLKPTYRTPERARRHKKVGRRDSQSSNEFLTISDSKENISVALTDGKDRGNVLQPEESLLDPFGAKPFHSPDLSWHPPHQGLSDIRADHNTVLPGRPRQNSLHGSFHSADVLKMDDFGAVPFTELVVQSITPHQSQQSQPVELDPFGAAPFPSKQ
UniProt O95999: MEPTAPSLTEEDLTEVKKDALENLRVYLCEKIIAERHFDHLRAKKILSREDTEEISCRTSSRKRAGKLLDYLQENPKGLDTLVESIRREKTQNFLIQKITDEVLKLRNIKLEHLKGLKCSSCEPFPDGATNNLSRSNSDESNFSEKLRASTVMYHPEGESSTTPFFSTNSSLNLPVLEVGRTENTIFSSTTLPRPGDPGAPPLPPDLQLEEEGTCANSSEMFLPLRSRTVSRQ
UniProt Q9H6S1, whole entry: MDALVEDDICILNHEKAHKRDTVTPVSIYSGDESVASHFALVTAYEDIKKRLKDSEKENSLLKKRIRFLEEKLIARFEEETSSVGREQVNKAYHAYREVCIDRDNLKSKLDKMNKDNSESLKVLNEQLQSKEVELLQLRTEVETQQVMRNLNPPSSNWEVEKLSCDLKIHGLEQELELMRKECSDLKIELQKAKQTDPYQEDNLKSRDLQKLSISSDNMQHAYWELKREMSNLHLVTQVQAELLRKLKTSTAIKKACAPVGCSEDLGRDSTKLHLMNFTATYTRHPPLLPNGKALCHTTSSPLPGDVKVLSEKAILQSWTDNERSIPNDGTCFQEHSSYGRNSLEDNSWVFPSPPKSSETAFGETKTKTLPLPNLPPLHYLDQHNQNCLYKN
UniProt Q8NFJ8: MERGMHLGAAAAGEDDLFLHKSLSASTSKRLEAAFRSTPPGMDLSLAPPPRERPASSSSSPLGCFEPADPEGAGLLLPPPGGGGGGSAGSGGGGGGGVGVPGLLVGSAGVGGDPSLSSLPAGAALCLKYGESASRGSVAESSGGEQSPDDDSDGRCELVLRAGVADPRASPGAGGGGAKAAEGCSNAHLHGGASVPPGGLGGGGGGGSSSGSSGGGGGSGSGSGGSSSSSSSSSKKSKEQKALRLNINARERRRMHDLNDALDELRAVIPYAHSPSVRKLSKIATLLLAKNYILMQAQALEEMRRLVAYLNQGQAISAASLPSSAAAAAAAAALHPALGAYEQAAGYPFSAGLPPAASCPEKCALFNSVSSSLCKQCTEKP
UniProt O95816: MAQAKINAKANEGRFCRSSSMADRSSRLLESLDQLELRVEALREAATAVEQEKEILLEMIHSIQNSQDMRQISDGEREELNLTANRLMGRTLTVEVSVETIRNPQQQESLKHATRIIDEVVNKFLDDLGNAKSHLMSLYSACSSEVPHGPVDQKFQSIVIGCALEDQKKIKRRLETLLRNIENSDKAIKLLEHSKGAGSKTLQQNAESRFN
UniProt Q6W2J9: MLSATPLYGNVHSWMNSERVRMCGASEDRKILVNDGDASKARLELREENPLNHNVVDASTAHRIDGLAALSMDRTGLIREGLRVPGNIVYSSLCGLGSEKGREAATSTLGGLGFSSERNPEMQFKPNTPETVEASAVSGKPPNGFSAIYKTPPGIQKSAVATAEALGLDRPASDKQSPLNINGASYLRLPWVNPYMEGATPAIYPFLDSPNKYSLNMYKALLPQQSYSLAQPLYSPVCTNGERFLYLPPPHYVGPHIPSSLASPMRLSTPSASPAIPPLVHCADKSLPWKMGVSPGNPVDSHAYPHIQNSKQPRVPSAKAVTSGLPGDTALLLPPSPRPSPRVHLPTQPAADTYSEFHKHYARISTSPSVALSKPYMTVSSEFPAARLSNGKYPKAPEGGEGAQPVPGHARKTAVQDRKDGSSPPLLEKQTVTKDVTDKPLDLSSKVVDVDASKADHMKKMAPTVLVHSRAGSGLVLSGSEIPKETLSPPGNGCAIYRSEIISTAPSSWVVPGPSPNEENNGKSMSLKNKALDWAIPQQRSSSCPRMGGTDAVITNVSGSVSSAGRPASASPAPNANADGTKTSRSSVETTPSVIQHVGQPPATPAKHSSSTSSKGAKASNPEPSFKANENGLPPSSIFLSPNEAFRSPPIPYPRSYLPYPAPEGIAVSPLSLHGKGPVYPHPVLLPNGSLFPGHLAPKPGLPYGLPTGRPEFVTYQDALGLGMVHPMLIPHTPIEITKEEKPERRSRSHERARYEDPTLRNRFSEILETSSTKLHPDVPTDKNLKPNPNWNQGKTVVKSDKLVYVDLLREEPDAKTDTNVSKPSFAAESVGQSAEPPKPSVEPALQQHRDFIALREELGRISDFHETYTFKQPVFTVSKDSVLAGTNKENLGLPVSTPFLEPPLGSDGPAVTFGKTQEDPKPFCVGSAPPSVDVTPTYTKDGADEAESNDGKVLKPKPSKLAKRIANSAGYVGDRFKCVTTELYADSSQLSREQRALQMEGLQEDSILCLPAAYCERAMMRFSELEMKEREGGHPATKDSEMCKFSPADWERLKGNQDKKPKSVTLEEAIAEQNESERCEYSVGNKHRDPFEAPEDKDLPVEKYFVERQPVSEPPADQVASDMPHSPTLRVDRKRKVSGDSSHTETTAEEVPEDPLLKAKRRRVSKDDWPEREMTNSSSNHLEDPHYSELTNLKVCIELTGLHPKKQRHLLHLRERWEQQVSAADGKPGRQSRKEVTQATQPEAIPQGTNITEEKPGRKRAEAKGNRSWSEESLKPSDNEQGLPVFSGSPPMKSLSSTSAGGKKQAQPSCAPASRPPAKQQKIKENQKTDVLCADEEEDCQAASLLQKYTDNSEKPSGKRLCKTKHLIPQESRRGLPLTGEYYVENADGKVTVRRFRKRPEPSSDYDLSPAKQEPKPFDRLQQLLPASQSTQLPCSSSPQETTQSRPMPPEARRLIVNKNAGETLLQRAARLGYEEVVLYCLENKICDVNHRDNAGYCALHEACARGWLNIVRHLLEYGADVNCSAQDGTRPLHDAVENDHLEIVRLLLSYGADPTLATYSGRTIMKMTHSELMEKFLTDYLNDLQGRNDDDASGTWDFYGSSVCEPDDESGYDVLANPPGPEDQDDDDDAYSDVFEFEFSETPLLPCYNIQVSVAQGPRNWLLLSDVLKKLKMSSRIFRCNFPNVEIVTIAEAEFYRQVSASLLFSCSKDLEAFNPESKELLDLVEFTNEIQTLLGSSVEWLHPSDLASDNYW

Compound: CC1Cc2ccccc2N1C(=O)C1CCCN(C1)C(=O)CCl (mixture of isomers) [TRIM25 ligand 11 (diastereomer mixture)]
Test: probe-labelled cysteine peptide fold change vs DMSO (competition) (log2 fold change); higher = less target engagement (more negative = stronger competition)
Conditions: THP-1, incubation time: 4 h
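Note: competitive chemoproteomic profiling in live THP-1 cells with an iodoacetamide desthiobiotin (IA-DTB) probe, comparing probe-labelled peptide intensities in compound-treated cells against DMSO-treated controls.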

Question: What does the source list for “BCR_P11274_737_HVFLFTDLLLCTK (UniProt P11274)”?
Answer: probe-labelled cysteine peptide fold change (10 µM): 0.0719; probe-labelled cysteine peptide fold change (50 µM): 0.203

Question: Which results are given for “ATXN10_Q9UBB4_165_NEDSQSIVWVHAFPELFLSCLNHPDKK (UniProt Q9UBB4)”?
Answer: probe-labelled cysteine peptide fold change (10 µM): 0.145; probe-labelled cysteine peptide fold change (50 µM): 0.235

Question: With “ATRX_P46100_1844_MTSIQCK (UniProt P46100)” as the target, how does the “probe-labelled cysteine peptide fold change” value (10 µM) read?
Answer: The value was -0.0864.

Question: What about the “probe-labelled cysteine peptide fold change” value (50 µM) of the same target?
Answer: Its value is 0.0332.

Question: BLM_P54132_318_CLSTLK (UniProt P54132) was tested. Which “probe-labelled cysteine peptide fold change” value (10 µM) did it give?
Answer: Its value is -0.0683.

Question: What about the “probe-labelled cysteine peptide fold change” value (50 µM) of the same target?
Answer: Its value is -0.0053.

Question: For “B4GALT1_P15291_172_DCVSPHK (UniProt P15291)”, which “probe-labelled cysteine peptide fold change” value (10 µM) is on record?
Answer: The value was -0.0797.

Question: And the “probe-labelled cysteine peptide fold change” value (50 µM)?
Answer: Its value is -0.0194.

Question: What does the source list for “BMP2K_Q9NSY1_197_VENILLNDGGNYVLCDFGSATNK (UniProt Q9NSY1)”?
Answer: probe-labelled cysteine peptide fold change (10 µM): -0.349; probe-labelled cysteine peptide fold change (50 µM): -0.141

Question: With “BOD1L1_Q8NFC6_1071_RLCENR (UniProt Q8NFC6)” as the target, how does the “probe-labelled cysteine peptide fold change” value (10 µM) read?
Answer: The value was 0.0518.

Question: And the “probe-labelled cysteine peptide fold change” value (50 µM)?
Answer: The value was -0.0137.

Question: What does the source list for “BCL10_O95999_57_ILSREDTEEISCR (UniProt O95999)”?
Answer: probe-labelled cysteine peptide fold change (10 µM): -0.111; probe-labelled cysteine peptide fold change (50 µM): 0.00715

Question: Which results are given for “ATXN10_Q9UBB4_84_SSHAVELACRDPSQVENLASSLQLITECFR (UniProt Q9UBB4)”?
Answer: probe-labelled cysteine peptide fold change (10 µM): 0.0704; probe-labelled cysteine peptide fold change (50 µM): 0.131

Question: Which “probe-labelled cysteine peptide fold change” value (10 µM) does the source give for “AZI2_Q9H6S1_10_MDALVEDDICILNHEK (UniProt Q9H6S1)” here?
Answer: The value was -0.0982.

Question: And the “probe-labelled cysteine peptide fold change” value (50 µM)?
Answer: The value was -0.142.

Question: For “BHLHE22_Q8NFJ8_156_GSVAESSGGEQSPDDDSDGRCELVLR (UniProt Q8NFJ8)”, which “probe-labelled cysteine peptide fold change” value (10 µM) is on record?
Answer: The value was -0.163.

Question: What about the “probe-labelled cysteine peptide fold change” value (50 µM) of the same target?
Answer: Its value is -0.376.

Question: With “BAG2_O95816_162_FQSIVIGCALEDQKK (UniProt O95816)” as the target, how does the “probe-labelled cysteine peptide fold change” value (10 µM) read?
Answer: The value was -0.201.

Question: And the “probe-labelled cysteine peptide fold change” value (50 µM)?
Answer: The value was 0.038.

Question: How did the “probe-labelled cysteine peptide fold change” value (10 µM) turn out when “BAZ2A_Q9UIF9_1697_KGDNDEFLLLCDGCDR (UniProt Q9UIF9)” was run?
Answer: Its value is 0.0208.

Question: And the “probe-labelled cysteine peptide fold change” value (50 µM)?
Answer: The value was -0.0208.

Question: “BCOR_Q6W2J9_1044_DSEMCK (UniProt Q6W2J9)” was tested. Which “probe-labelled cysteine peptide fold change” value (10 µM) did it give?
Answer: Its value is -0.179.

Question: And the “probe-labelled cysteine peptide fold change” value (50 µM)?
Answer: Its value is -0.488.
